Assay [1] concerns the target CD44s (standard form) (UniProt P16070). Nature of the assay: phagemid antibody selected on yeast displayed antigen; screened by flow cytometry as in Examples 4 and 5.
Assay [2] shares this target. Briefly: fd phage antibody selected on yeast displayed antigen; screened by flow cytometry as in Examples 4 and 5.
Assay [3] concerns the target CD44 of MDAMB231 cells (native CD44) (human) (UniProt P16070). Nature of the assay: flow cytometry of phage antibody on MDAMB231 cells.
Assay [4] shares this target. Nature of the assay: immunoprecipitation with soluble His-tagged scFv from MDAMB231 cell extract, Western blot with anti-CD44 Ab-4.
Assay [5] has the same target. Nature of the assay: immunoprecipitation with soluble scFv, Western blot.

Chains of the proteins cited; added tags and fusions are not shown. Lines headed by an entry give the natural chain unless they say otherwise; changes in a name come on top. A line that says so, or that is headed by a name, gives the form on record, which may keep a tag or linker. Residues count along the entry.
CD44 of MDAMB231 cells (native CD44) (P16070, residues 21-742): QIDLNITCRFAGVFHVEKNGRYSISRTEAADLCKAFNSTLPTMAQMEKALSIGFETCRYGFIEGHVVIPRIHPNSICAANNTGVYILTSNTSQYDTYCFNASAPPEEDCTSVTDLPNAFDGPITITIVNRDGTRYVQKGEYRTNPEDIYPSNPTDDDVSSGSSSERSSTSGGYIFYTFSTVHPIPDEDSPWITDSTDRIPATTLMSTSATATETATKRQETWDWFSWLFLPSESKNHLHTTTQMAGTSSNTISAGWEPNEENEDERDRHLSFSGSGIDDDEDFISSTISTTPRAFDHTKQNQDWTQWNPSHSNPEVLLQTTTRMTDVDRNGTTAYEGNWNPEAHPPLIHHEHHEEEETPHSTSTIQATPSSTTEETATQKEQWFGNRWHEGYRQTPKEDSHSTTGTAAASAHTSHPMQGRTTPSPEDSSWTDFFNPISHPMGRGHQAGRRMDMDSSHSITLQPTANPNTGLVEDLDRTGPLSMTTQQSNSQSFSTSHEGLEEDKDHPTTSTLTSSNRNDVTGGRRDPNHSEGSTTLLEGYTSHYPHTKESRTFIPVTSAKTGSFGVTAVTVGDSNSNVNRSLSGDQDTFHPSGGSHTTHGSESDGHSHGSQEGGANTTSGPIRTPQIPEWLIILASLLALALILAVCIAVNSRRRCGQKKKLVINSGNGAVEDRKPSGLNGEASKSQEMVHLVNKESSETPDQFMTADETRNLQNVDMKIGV
CD44s (standard form) (P16070, form named): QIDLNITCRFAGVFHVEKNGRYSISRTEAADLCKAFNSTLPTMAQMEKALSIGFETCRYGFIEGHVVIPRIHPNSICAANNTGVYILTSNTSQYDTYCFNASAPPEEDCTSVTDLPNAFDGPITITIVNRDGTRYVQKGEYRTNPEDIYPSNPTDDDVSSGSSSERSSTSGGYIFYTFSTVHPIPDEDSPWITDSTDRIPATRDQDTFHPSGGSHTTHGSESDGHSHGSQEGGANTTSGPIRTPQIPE

These are yes or no findings as the source states them, for the method shown. Some binding calls cover weakened binding; strength is not graded here.

B1: H1C4 (scFv)
scFv: QVQLVESGGGLVQPGGSLRLSCAASGFTFSTLAMGWVRQAPGKGLEWVSAISGSGGSTYYADSVKGRFTISRDNSKNTLYLQMNSLRAEDTAVYYCARGAVGATTAFDYWGQGTLVTVSSGGGGSGGGGSGGGGSSELTQDPAVSVALGQTVKITCQGDSLRSYYASWYQQKPGQAPVLVIYGKNNRPSGIPDRFSGSSSGNTASLTITGAQAEDEADYYCNSRDSSGNHLVFGGGTKLTVLG
Regarding B1, the binding result in the assay with CD44s (standard form) [1] is given as “binds”.

B2: D6G9 (scFv)
scFv: QVQLVESGGGLVQPGGSLRLSCAASGFTFSSYAMGWVRQAPGKGLEWVSAISASGGSTYYADSVKGRFTISRDNSKNTLYLQLNSLRAEDTAVYYCAKGLKDSSGFDYWGQGTLVTVSSGGGGSGGGGSGGGGSNFMLTQDPAVSVALGQTVRITCQGDSLRSYYASWYQQKPGQAPVLVIYGKNNRPSGIPDRFSGSSSGNTASLTITGAQAEDEADYYCNSRDSSAKRVVFGGGTKVTVLG
Turning to B2, the binding entry with CD44s (standard form) [2] is given as “binds”.

B3: anti-CD44 human scFv F2-1A6 (scFv, V domains shown)
VH: QVQLVQSGAEVKKPGESLKISCKGSGYSFTSYWIGWVRQMPGKGLEWMGIIYPGDSDTRYSPSFQGQVTISADKSISTAYLQWSSLKASDTAMYYCARRLHGPFYFDYWGQGTLVTVSS
VL: SELTQDPAVSVALGQTVRITCQGDSLRSYYASWYQQKPGQAPLLVIYGKNIRPSGIPDRFSGSSSGNTASLTITGAQAEDEADYYCNSRDSSGNHVVFGGGTKLTVLG
notes: soluble scFv with C-terminal (His)6 tag in the immunoprecipitation; also called anti-CD44 phage F2-1A6
B3: the binding entry in assay [3], in assay [4] and in assay [5] was “binds” each time.

B4: D6D3 (scFv)
scFv: QVQLQESGGGLVQPGGSLRLSCAASGFTFSSYAMSWVRQAPGKGLEWVSAITSSGGRTYYADSVRGRLTISRDNSKNTLYLQMNTLRAEDTAVYYCAKGIVGATAFDYWGQGTLVTVSSGGGGSGGGGSGGGGSSELTQDPAVSVALGQTVRITCQGDSLRSYYASWYQQKPGQAPVLVIYGKNNRPSGIPDRFSGSSSGNTASLTITGAQAEDEADYYCNSRDSSGNSVVFGGGTKVTVLG
For B4, the binding result with CD44s (standard form) [2] is “binds”.

Source of the values: patent US20130209481A1 (University of California, published 2013).
